For this test, the target named is cAng2 (cynomolgus monkey). The experiment in a line: competition ELISA, blocking of cAng2 binding to cTie2.

These results are taken from patent US20170247475A1.

Results are given in words; binding and its absence hold for the method and conditions named. A result given as binding can be weak or reduced; the word gives no strength.

B1: ANGBII00003 (VHH)
bivalent VHH: EVQLVESGGGLVQVGDSLRLSCAASGRTFSTYLMVGWFRQAPGKEREFAAGIWSSGDTAYADSVRGRFTISRDNAKNTVYLQMNSLKTEDTAVYYCAGSYDGNYYIPGFYKDWGQGTLVTVSSGGGGSGGGSEVQLVESGGGLVQVGDSLRLSCAASGRTFSTYLMVGWFRQAPGKEREFAAGIWSSGDTAYADSVRGRFTISRDNAKNTVYLQMNSLKTEDTAVYYCAGSYDGNYYIPGFYKDWGQGTLVTVSS
With B1, the binding result was “binds”.
